Reference: the supplement of paper PMC12823440, “Inhibitors supercharge kinase turnover through native proteolytic circuits” (Nature, 2025)
Some of the results follow. Hit calls seldom repeat between salt and free forms of one compound.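 In K562 cells expressing nanoluciferase-fused kinases, luminescence was recorded at 4 h intervals between 2 and 18 h, normalized as percent of control with DMSO at 100% and a positive control at 0%. A significant (2 sigma) signal drop marks a time point as decreased. The authors' rule for a hit is not shown and takes in more than the number of time points.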

By UniProt entry, the sequences of proteins in these tests, tags left out. Where a name states a change or a piece, a line headed by the entry shows the natural chain unless it says otherwise.
UniProt Q05397, whole entry, looked up: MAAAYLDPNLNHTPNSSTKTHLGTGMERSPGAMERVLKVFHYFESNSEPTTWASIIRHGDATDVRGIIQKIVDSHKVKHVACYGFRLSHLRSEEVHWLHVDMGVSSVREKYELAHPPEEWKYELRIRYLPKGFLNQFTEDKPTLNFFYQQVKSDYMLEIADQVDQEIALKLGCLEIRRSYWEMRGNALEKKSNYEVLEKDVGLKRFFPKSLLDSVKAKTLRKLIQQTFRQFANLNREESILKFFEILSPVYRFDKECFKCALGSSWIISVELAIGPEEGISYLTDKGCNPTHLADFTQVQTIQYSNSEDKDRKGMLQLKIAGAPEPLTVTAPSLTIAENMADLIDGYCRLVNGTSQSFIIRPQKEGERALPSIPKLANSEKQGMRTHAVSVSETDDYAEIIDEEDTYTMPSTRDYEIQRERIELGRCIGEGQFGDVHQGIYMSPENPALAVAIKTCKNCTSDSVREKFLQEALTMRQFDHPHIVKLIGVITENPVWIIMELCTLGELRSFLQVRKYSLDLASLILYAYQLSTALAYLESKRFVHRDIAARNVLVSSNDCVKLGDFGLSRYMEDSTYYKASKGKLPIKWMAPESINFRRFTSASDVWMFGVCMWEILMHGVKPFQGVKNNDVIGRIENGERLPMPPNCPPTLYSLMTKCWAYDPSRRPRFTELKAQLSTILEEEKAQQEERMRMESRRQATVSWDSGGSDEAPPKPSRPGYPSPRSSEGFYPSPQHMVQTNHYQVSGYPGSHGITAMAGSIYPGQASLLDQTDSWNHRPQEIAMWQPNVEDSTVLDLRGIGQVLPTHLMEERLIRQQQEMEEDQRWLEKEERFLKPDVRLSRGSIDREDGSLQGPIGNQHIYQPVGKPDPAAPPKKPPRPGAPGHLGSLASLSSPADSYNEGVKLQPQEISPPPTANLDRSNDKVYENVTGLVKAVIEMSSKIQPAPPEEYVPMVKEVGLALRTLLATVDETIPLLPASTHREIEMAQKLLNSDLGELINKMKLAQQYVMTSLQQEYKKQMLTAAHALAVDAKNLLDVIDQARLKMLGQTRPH
UniProt Q14289, whole entry, looked up: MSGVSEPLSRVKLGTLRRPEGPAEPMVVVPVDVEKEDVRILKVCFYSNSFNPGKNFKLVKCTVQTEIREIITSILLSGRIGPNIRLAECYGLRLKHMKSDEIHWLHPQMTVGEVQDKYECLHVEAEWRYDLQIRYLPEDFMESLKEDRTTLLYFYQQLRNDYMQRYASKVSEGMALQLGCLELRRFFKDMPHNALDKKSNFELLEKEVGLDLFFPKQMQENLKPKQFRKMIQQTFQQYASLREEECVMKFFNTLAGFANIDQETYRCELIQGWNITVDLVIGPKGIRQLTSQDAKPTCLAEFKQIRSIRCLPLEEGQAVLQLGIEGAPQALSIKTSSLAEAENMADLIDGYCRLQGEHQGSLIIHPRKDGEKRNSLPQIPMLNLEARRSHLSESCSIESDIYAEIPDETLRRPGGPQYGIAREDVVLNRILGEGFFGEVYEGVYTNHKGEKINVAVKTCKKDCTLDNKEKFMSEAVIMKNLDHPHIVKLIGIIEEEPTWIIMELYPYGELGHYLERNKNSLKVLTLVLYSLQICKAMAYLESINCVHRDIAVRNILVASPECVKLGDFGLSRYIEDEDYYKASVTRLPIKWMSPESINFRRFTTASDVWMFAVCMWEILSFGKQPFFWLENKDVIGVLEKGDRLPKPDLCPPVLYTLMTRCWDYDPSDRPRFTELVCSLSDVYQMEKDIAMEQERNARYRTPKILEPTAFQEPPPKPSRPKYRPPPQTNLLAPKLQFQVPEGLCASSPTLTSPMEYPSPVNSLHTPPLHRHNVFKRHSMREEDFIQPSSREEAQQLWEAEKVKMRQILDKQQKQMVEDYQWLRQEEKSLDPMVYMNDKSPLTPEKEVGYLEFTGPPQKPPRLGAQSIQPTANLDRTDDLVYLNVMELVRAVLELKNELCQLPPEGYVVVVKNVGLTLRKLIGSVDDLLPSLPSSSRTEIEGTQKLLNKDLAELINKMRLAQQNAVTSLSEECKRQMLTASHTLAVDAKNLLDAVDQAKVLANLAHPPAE
UniProt P07949, whole entry, looked up: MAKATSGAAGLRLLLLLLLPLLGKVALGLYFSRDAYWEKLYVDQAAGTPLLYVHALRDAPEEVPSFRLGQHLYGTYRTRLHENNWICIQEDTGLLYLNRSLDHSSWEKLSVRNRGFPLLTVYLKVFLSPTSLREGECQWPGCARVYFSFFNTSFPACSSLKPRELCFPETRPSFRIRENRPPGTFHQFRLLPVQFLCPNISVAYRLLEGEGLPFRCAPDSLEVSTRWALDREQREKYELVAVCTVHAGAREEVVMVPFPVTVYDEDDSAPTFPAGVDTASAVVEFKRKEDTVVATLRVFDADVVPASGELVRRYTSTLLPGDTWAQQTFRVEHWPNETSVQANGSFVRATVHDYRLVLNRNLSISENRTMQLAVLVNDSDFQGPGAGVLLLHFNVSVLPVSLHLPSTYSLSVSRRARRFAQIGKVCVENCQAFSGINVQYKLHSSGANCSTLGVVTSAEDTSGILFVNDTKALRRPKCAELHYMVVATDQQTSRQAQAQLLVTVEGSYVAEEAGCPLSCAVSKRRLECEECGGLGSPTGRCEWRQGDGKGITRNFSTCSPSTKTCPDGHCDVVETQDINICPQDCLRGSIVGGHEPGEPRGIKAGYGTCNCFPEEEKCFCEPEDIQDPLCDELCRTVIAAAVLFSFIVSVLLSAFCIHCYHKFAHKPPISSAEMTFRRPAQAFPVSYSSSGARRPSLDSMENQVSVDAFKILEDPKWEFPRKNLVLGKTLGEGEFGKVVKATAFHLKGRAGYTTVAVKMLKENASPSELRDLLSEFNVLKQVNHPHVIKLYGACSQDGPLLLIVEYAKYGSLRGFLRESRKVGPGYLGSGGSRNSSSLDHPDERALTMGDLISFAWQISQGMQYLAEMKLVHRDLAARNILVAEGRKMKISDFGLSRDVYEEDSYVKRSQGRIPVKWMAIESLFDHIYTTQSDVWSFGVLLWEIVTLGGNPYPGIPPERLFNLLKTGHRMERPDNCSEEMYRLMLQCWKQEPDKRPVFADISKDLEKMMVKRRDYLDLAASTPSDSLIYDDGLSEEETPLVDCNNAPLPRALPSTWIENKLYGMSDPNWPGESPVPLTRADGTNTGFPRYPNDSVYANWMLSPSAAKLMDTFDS
UniProt P07949, whole entry M918T, looked up: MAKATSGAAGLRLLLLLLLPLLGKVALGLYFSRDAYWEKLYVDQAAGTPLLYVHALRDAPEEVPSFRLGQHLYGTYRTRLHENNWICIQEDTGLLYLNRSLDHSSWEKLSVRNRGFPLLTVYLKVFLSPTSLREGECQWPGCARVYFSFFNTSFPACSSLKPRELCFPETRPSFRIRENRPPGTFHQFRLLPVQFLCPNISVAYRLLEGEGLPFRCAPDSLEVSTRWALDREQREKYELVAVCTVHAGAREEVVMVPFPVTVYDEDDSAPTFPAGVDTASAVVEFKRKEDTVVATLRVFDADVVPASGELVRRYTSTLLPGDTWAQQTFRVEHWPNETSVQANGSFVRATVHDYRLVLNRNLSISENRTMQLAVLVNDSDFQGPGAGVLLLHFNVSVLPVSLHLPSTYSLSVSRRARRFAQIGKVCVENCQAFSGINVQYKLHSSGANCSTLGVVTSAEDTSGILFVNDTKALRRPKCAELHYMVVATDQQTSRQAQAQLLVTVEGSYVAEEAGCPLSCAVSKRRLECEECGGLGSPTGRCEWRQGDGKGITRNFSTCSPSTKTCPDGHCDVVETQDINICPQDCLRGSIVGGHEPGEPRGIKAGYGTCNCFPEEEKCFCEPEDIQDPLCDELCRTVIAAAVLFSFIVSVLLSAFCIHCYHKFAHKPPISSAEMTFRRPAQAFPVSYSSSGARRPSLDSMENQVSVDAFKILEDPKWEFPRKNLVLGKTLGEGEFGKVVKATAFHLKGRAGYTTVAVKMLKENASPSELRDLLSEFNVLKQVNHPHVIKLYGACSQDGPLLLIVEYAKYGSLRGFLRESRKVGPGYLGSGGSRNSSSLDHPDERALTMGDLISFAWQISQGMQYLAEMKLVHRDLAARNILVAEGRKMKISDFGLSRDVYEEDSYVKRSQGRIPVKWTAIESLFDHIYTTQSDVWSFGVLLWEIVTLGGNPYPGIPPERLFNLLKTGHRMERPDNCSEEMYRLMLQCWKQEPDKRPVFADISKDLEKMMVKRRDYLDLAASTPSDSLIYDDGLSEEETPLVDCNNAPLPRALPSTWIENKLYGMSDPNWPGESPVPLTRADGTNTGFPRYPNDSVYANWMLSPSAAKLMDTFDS
UniProt Q9BRS2: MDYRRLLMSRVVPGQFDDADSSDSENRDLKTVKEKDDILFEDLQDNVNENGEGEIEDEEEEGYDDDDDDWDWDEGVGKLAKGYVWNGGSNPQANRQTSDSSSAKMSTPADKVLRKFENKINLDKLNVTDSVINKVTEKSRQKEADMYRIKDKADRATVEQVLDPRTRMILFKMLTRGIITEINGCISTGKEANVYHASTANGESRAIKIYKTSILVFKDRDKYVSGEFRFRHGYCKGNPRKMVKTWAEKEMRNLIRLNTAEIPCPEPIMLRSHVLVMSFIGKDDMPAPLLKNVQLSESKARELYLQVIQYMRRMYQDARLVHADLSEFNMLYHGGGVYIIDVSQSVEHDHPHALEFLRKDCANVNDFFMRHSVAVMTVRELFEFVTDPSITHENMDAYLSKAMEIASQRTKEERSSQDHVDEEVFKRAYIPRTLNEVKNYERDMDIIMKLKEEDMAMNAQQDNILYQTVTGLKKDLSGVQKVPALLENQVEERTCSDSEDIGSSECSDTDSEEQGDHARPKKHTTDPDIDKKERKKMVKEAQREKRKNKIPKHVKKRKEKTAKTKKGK
UniProt Q13546: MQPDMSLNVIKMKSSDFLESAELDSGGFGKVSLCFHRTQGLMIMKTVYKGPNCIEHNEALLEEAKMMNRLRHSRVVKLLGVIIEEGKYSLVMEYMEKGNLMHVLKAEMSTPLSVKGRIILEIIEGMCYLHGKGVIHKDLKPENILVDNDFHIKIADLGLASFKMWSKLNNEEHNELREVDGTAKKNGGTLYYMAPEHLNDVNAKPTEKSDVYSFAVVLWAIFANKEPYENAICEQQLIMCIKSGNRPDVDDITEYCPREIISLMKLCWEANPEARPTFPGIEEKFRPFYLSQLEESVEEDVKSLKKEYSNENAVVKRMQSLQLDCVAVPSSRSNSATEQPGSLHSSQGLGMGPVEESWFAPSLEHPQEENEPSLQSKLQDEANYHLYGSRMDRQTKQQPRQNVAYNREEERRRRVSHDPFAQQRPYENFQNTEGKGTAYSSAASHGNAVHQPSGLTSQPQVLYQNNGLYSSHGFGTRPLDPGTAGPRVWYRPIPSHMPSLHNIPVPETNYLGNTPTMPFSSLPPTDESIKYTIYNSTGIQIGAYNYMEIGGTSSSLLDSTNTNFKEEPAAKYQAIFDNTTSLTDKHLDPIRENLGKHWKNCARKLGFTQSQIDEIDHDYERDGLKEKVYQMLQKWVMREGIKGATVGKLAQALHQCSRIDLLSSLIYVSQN

Key:
Test in all cases: number of time points (of 5) at which kinase-Nluc abundance scored as decreased, DMSO-normalised (count); higher = more persistent destabilization
Settings in all cases: K562; 2-18 h
[1] = target: PRKCA (UniProt P17252)
[2] = target: PTK2 (UniProt Q05397)
[3] = target: PTK2B (UniProt Q14289)
[4] = target: RAF1 (UniProt P04049)
[5] = target: RAF1_S257L (clone: RAF1_mut) (UniProt P04049)
[6] = target: RET (UniProt P07949)
[7] = target: RET_M918T (clone: RET_mut) (UniProt P07949)
[8] = target: RIOK1 (UniProt Q9BRS2)
[9] = target: RIPK1 (UniProt Q13546)
[10] = target: RIPK2 (UniProt O43353)

Measured: number of time points

COc1cc2ncnc(Oc3ccc(CC(=O)Nc4cnn(C(C)C)c4)cc3)c2cc1OC (10 µM)
0: [1] | [2] | [3] | [4] | [6] | [7] | [8] | [9] | [10]
2: [5]

Nc1nccc(-c2c(-c3ccc(F)cc3)ncn2C2CCCCC2)n1 (10 µM)
1: [2] | [10]
0: [1] | [3] | [4] | [5] | [6] | [7] | [8] | [9]

O=C(NCCN1CCOCC1)Nc1nc2ccc(Sc3nnc4ccc(-c5ccc(F)cc5)nn34)cc2s1 (10 µM)
0: [1] | [3] | [4] | [5] | [6] | [7] | [8] | [9] | [10]
2: [2]

Cn1c2cc([S+](C)[O-])sc2c2cnn(Cc3cccc(N)c3)c(=O)c21 (stereo not given) (2.5 µM)
0: [1] | [2] | [3] | [4] | [5] | [6] | [7] | [8] | [9] | [10]

CC1=C(C(=O)Nc2cc3cn[nH]c3cc2F)C(c2ccc(C(F)(F)F)cc2)CC(=O)N1 (stereo not given) (10 µM)
0: [1] | [2] | [3] | [4] | [5] | [6] | [7] | [8] | [9] | [10]

Nc1ncc(C(=O)NC2CN(C(=O)C3CC3)C2)c2ccc(-c3cccc(F)c3)nc12 (2 µM)
0: [1] | [2] | [3] | [4] | [5] | [6] | [7] | [8] | [9] | [10]

COc1ccc(Br)cc1NC(=O)Nc1cccc2c1ccn2Cc1ccnc(N)c1 (2.5 µM)
0: [1] | [2] | [3] | [4] | [5] | [6] | [7] | [8] | [9] | [10]

O=C(O)c1ccc(/C=C/S(=O)(=O)Cc2ccc(Cl)cc2)cc1 [Recilisib] (10 µM)
0: [2] | [3] | [4] | [5] | [6] | [7] | [8] | [9] | [10]
4: [1]

Cc1ccc(NC(=O)Nc2cc(C(F)(F)F)ccc2F)cc1Nc1ccc2c(c1)NC(=O)/C2=C\c1ccc[nH]1 (2.5 µM)
0: [1] | [2] | [3] | [4] | [5] | [7] | [8] | [9] | [10]
1: [6]

O=C(Nc1ccc(Cl)cc1)C1CCCN(C(=O)c2cc(C(F)(F)F)cc(C(F)(F)F)c2)C1 (stereo not given) (10 µM)
0: [1] | [3] | [4] | [5] | [6] | [7] | [8] | [9] | [10]
3: [2]

In the list so far, two have an aryl methoxy group.
COc1cc2ncnc(Oc3ccc(CC(=O)Nc4cnn(C(C)C)c4)cc3)c2cc1OC (10 µM)
0: [1] | [2] | [3] | [4] | [6] | [7] | [8] | [9] | [10]
2: [5]

COc1ccc(Br)cc1NC(=O)Nc1cccc2c1ccn2Cc1ccnc(N)c1 (2.5 µM)
0: [1] | [2] | [3] | [4] | [5] | [6] | [7] | [8] | [9] | [10]

Remaining list, next part:

CNC(=O)c1cc2c(Oc3ccc(NC(=O)C4(C(=O)Nc5ccc(F)cc5)CC4)cc3)ccnc2cc1OC (2.5 µM)
2: [8] | [9]
1: [2] | [3] | [6] | [7]
4: [5]
0: [1]
3: [4] | [10]

NC(=O)c1cnc(-c2ccc(C3(N)CCC3)cc2)c(-c2ccccc2)c1 (10 µM)
0: [1] | [2] | [3] | [4] | [5] | [6] | [7] | [8] | [9] | [10]

COc1cc2c(cc1Nc1ncc(C(N)=O)c(Nc3c(F)cccc3C(F)(F)F)n1)CN(C)CC2 (2.5 µM)
0: [1] | [2] | [3] | [4] | [5] | [6] | [7] | [8] | [9] | [10]

Cc1cc(C)cc(NC(N)=Nc2ccccc2C(F)(F)F)c1 (10 µM)
0: [1] | [2] | [3] | [4] | [5] | [6] | [7] | [8] | [9] | [10]

c1ccc(Cn2c(-c3ccc(OC[C@H](C4CCNCC4)n4c(-c5ccccc5)nc5ccccc54)cc3)nc3ccccc32)cc1 [Deltarasin] (2.5 µM)
0: [1] | [2] | [3] | [4] | [5] | [6] | [7] | [8] | [9] | [10]

Cc1nn(C)cc1-c1nc2c(N3CCN(Cc4ccc(Cl)cc4)CC3)c(Cl)cnc2[nH]1 (10 µM)
0: [1] | [2] | [3] | [4] | [5] | [6] | [7] | [8] | [9] | [10]

c1nn(C2CCOCC2)cc1Nc1ncc2nnn(-c3ccc4cn[nH]c4c3)c2n1 (10 µM)
0: [1] | [2] | [3] | [4] | [5] | [6] | [7] | [8] | [9] | [10]

Cc1cc(C(=O)Nc2nc3cccc(Cl)c3n2[C@@H]2CCCCN(C(=O)/C=C/CN(C)C)C2)ccn1 [Nazartinib] (10 µM)
0: [1] | [2] | [3] | [4] | [5] | [6] | [7] | [8] | [9] | [10]

CCNC(=O)C#Cc1ccc2c(C(=Nc3ccc(CN(C)C)cc3)c3ccccc3)c(O)[nH]c2c1 (2.5 µM)
0: [3] | [4] | [5] | [6] | [7] | [8] | [9] | [10]
1: [1] | [2]

COC(=O)Nc1ccc(-c2nc(N3CCOCC3)c3cnn(C4CCN(Cc5cccnc5)CC4)c3n2)cc1 (10 µM)
3: [2]
0: [1] | [3] | [4] | [5] | [6] | [7] | [8] | [9] | [10]

CC(O)(C#Cc1ccc2c(c1)N(c1nc(N)ncc1Cl)CC2)c1nccs1 (stereo not given) (2.5 µM)
0: [1] | [2] | [3] | [4] | [5] | [6] | [7] | [8] | [9] | [10]

COc1cc2c(cc1OC)/C(=C/c1ccc(O)cc1)C(=O)N2 (10 µM)
0: [1] | [2] | [3] | [4] | [5] | [6] | [7] | [8] | [9] | [10]

NS(=O)(=O)c1ccc(Nc2nc(-c3cccc(-c4ccccc4)c3)c3[nH]cnc3n2)cc1 (10 µM)
0: [1] | [2] | [3] | [4] | [5] | [6] | [7] | [8] | [9] | [10]

CNC(=O)c1ccc2c(C(=Nc3cccc(CN(C)C)c3)c3ccccc3)c(O)[nH]c2c1 [MEK inhibitor] (10 µM)
0: [1] | [2] | [3] | [4] | [5] | [6] | [7] | [8] | [9] | [10]

Clc1ccc(C(c2ccc(Cl)cc2)[n+]2ccn(CC(OCc3ccc(Cl)cc3Cl)c3ccc(Cl)cc3Cl)c2)cc1 (stereo not given) [Calmidazolium chloride] (2.5 µM)
0: [1] | [3] | [4] | [6] | [7] | [8] | [10]
3: [5] | [9]
1: [2]

COc1ccc2c3n(c(=NC(=O)c4cccnc4)nc2c1OC)CCN3 (2 µM)
0: [1] | [2] | [3] | [4] | [5] | [6] | [7] | [8] | [9] | [10]

CCN(CC)CCOc1ccc(Nc2nc(-c3ccccc3NC(=O)CCN3CCN(C)CC3)nc3ccccc23)cc1 (2.5 µM)
0: [1] | [2] | [3] | [4] | [5] | [6] | [7] | [8] | [9] | [10]

COc1cc2ncnc(Nc3cccc(I)c3)c2cc1OC (2.5 µM)
0: [1] | [2] | [3] | [4] | [5] | [6] | [7] | [8] | [9] | [10]

Nc1nc2c(nc(Br)n2[C@@H]2O[C@@H]3COP(=O)(O)O[C@H]3[C@H]2O)c(=O)[nH]1 [8-Bromo-cGMP (sodium)] (10 µM)
0: [1] | [2] | [3] | [4] | [5] | [6] | [7] | [8] | [9] | [10]

Cc1c(Cl)cccc1S(=O)(=O)Nc1nc(NCCc2ccccc2)nc2c1CN(Cc1ccccc1)CC2 (2.5 µM)
0: [1] | [2] | [3] | [4] | [5] | [6] | [7] | [8] | [9] | [10]

C=CC(=O)N1CCC[C@@H](n2nc(-c3ccc(Oc4ccccc4)cc3)c3c(N)n[nH]c(=O)c32)C1 [BTK inhibitor 17] (10 µM)
0: [1] | [2] | [3] | [4] | [5] | [6] | [7] | [8] | [9] | [10]

C=CC(=O)Nc1ccc(C(=O)Nc2[nH]nc3c2CN(C(=O)N[C@H](CN(C)C)c2ccccc2)C3(C)C)cc1 (10 µM)
2: [2] | [4] | [6] | [7] | [8]
0: [1] | [3]
3: [5] | [9]
1: [10]

C[C@@H](Nc1ncnc2[nH]c(-c3ccc(O)cc3)cc12)c1ccccc1 (2.5 µM)
0: [1] | [2] | [3] | [4] | [5] | [6] | [7] | [8] | [9] | [10]

c1nc2c(NC3CCCCC3)nc(Nc3ccc(N4CCOCC4)cc3)nc2[nH]1 [Reversine] (10 µM)
0: [1] | [3] | [6] | [7] | [8] | [9] | [10]
2: [4]
4: [5]
1: [2]

CC1CN(CC2CCN(Cc3ccccc3)CC2)C(=O)N(c2cccc(C(=N)N)c2)C1 (stereo not given) (10 µM)
0: [1] | [2] | [3] | [4] | [5] | [6] | [7] | [8] | [9] | [10]

COCCOc1ccc2c(c1)ncn2-c1ccc2cccc(N3CCC(N)CC3)c2n1 (10 µM)
3: [9] | [10]
0: [1] | [7]
1: [3]
2: [2] | [4] | [6] | [8]
4: [5]

CC1(N)CCN(c2cccnc2NC(=O)c2nc(-c3ncccc3C(F)(F)F)cnc2N)CC1 [Darovasertib] (10 µM)
0: [1] | [2] | [3] | [4] | [5] | [6] | [7] | [8] | [9] | [10]

O=C(Nc1cccc(-c2nc(-c3ccc(NC(=O)c4cccnc4)cc3Cl)no2)c1)Nc1ccc(NC(=O)C2CC2)c(C(F)(F)F)c1 (2.5 µM)
0: [1] | [3] | [4] | [5] | [6] | [7] | [8] | [9] | [10]
1: [2]
